# Experimental data reported in article PMC7819943, “Rice protein-binding microarrays: a tool to detect cis-acting elements near promoter regions in rice”.
# Sequences of proteins named here, by UniProt entry; tags and fusion partners are left off.
# UniProt Q0JBA9, entry or part of it: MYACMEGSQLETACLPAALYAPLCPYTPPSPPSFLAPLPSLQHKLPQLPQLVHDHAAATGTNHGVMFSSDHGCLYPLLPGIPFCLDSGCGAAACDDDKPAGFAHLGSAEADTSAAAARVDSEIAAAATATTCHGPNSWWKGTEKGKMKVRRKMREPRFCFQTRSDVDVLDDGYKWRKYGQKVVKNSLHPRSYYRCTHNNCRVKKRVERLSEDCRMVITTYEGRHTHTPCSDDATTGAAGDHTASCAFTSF
# Some of the results follow.
# Molecular target: OsWRKY34 (Oryza sativa, UniProt Q0JBA9 1-250)
# Test: protein-binding microarray (RPBM); PBS, 2% BSA, 51.3 ng/ul salmon testes DNA, 50 uM zinc acetate, 200 nM TF, 25 C, 1 h; high values mean tight binding
# Settings: protein: recombinant; tags: N-terminal polyhistidine and DsRed monomer fusion (pET32a); label: CyDye5-dUTP incorporated in the synthesized complementary strand; 3' TTTTT single-stranded linker to array surface; dsDNA, one strand shown
# Method in brief: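 For the binding signal, per-feature fluorescence intensity was read in arbitrary units on an Axon 4000B scanner. Before scanning, a 2% BSA-blocked custom Agilent array made double-stranded with Cy5-dUTP was washed after 1 h at 25 °C with 200 nM protein and 50 µM zinc acetate. The proteins were Ni–NTA-purified transcription factors with N-terminal polyhistidine and DsRed fusions, expressed in E. coli BL21-CodonPlus.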
row,Sequence,binding signal
1,CTTTATTCGATATATGGGACAAATTAAGGCAGTTGCACCTCGGAGTCACCTAGTGCAG,8820 fluorescence intensity (a.u.)
2,TTTATTTTTATACTGTCACGTATCAACTGCAGTATGCATCCGGAGTCACCTAGTGCAG,8490 fluorescence intensity (a.u.)
3,TTCTTTTCCATATCGCGTTGGCCACGCGTCACCGATCGAGCGGAGTCACCTAGTGCAG,8720 fluorescence intensity (a.u.)
4,TTTAAGTTTTTGTTTGTACTATTTGACCACTCGTTTTATTCGGAGTCACCTAGTGCAG,8100 fluorescence intensity (a.u.)
5,CAATTTTAGGTTATCTATTTGTGTACTTTTTTAGTTACTGCGGAGTCACCTAGTGCAG,8120 fluorescence intensity (a.u.)
6,ATTGTTTTTTTTTCTTTTGCTGCGATTAACTGGACTTGTTCGGAGTCACCTAGTGCAG,8800 fluorescence intensity (a.u.)
7,TCACCTTCTGTGTTTCTTTTTTCTCTTTTCCATCTCATCCCGGAGTCACCTAGTGCAG,9530 fluorescence intensity (a.u.)
8,AACATGTACTAAAAAGTCAACGGTGTCGAACATTTTGAAACGGAGTCACCTAGTGCAG,8820 fluorescence intensity (a.u.)
9,GGTGACTTCTACTTGGCCCATGCAATGTTTGGTTGGTTTCCGGAGTCACCTAGTGCAG,12300 fluorescence intensity (a.u.)
10,GGCCCACAACATCCGGTCCATCTATTTTCATCGCCACTATCGGAGTCACCTAGTGCAG,11500 fluorescence intensity (a.u.)
11,TCATCGTCACTTTCATCGGTTTTAGCCTCACCATTGCTTGCGGAGTCACCTAGTGCAG,8810 fluorescence intensity (a.u.)
12,TTCGTCTTCATCTGCCCATCTCTTTCGTTCTCTCGGCTCTCGGAGTCACCTAGTGCAG,12600 fluorescence intensity (a.u.)
13,TACTTCTACTGCTGCTGCGCTTCCCTGCTTGTACCAGCCGCGGAGTCACCTAGTGCAG,9730 fluorescence intensity (a.u.)
14,GGTTGAATATATCATGCCTCTGCTCAACTTCTGGTCTTTTCGGAGTCACCTAGTGCAG,10300 fluorescence intensity (a.u.)
15,ATTTGTACATTGACGCGTGGACTTATTATGCACTAAATAACGGAGTCACCTAGTGCAG,8660 fluorescence intensity (a.u.)
16,ATTTTCTCCTCTCTACCTTAGGATTTTTATCTTTTTTCTACGGAGTCACCTAGTGCAG,8400 fluorescence intensity (a.u.)
17,CATCTGATTTTATTCCATGGATTTCATTTCACTCATCCCACGGAGTCACCTAGTGCAG,8110 fluorescence intensity (a.u.)
18,GGTCTCCACGCCTACGCATCCACGTCTCCAGCCAGGTCCACGGAGTCACCTAGTGCAG,10200 fluorescence intensity (a.u.)
19,AACTGATGAATTTGTCTTTTCCGTTTAAACTTTGACCACCCGGAGTCACCTAGTGCAG,8920 fluorescence intensity (a.u.)
20,CAGCCGGTGTTTTTATCCATTTTGCTGGGAGCAACCATGCCGGAGTCACCTAGTGCAG,8640 fluorescence intensity (a.u.)
21,TCTTGTGCGCCACTCCTACTTATCCGTTTCAAACACACACCGGAGTCACCTAGTGCAG,10800 fluorescence intensity (a.u.)

# Reformatted bar-delimited: entries from further up.
row | Sequence | binding signal
4 | TTTAAGTTTTTGTTTGTACTATTTGACCACTCGTTTTATTCGGAGTCACCTAGTGCAG | 8100 fluorescence intensity (a.u.)
5 | CAATTTTAGGTTATCTATTTGTGTACTTTTTTAGTTACTGCGGAGTCACCTAGTGCAG | 8120 fluorescence intensity (a.u.)
6 | ATTGTTTTTTTTTCTTTTGCTGCGATTAACTGGACTTGTTCGGAGTCACCTAGTGCAG | 8800 fluorescence intensity (a.u.)
7 | TCACCTTCTGTGTTTCTTTTTTCTCTTTTCCATCTCATCCCGGAGTCACCTAGTGCAG | 9530 fluorescence intensity (a.u.)
8 | AACATGTACTAAAAAGTCAACGGTGTCGAACATTTTGAAACGGAGTCACCTAGTGCAG | 8820 fluorescence intensity (a.u.)
9 | GGTGACTTCTACTTGGCCCATGCAATGTTTGGTTGGTTTCCGGAGTCACCTAGTGCAG | 12300 fluorescence intensity (a.u.)
10 | GGCCCACAACATCCGGTCCATCTATTTTCATCGCCACTATCGGAGTCACCTAGTGCAG | 11500 fluorescence intensity (a.u.)
11 | TCATCGTCACTTTCATCGGTTTTAGCCTCACCATTGCTTGCGGAGTCACCTAGTGCAG | 8810 fluorescence intensity (a.u.)
12 | TTCGTCTTCATCTGCCCATCTCTTTCGTTCTCTCGGCTCTCGGAGTCACCTAGTGCAG | 12600 fluorescence intensity (a.u.)
13 | TACTTCTACTGCTGCTGCGCTTCCCTGCTTGTACCAGCCGCGGAGTCACCTAGTGCAG | 9730 fluorescence intensity (a.u.)
14 | GGTTGAATATATCATGCCTCTGCTCAACTTCTGGTCTTTTCGGAGTCACCTAGTGCAG | 10300 fluorescence intensity (a.u.)
15 | ATTTGTACATTGACGCGTGGACTTATTATGCACTAAATAACGGAGTCACCTAGTGCAG | 8660 fluorescence intensity (a.u.)
16 | ATTTTCTCCTCTCTACCTTAGGATTTTTATCTTTTTTCTACGGAGTCACCTAGTGCAG | 8400 fluorescence intensity (a.u.)

# Further results

row,Sequence,binding signal
1,ACCTCCATTACACATTGTAAGTCATTTTGTCTTTTTCTCTCGGAGTCACCTAGTGCAG,8680 fluorescence intensity (a.u.)
2,CCGCGCGTGATGCGCCTCCCACCACCACCACCAGCGCGCGCGGAGTCACCTAGTGCAG,8370 fluorescence intensity (a.u.)
3,GCATCTGATCGATCTCCCGTTACTATCTGCCCGCCTATTACGGAGTCACCTAGTGCAG,12300 fluorescence intensity (a.u.)
4,CTACTACTCTTTTCTCAGAGCTAGTGAGGGGCGGGCGGGCCGGAGTCACCTAGTGCAG,17500 fluorescence intensity (a.u.)
5,GTTCGTTGGGCTAGCTTGTGTGCTAGATCTGTTTCTACTTCGGAGTCACCTAGTGCAG,8080 fluorescence intensity (a.u.)
6,ACGGAGGGAGTAGTAACTTTGCCTTGATCCTACATGAACTCGGAGTCACCTAGTGCAG,8890 fluorescence intensity (a.u.)
7,TACACACGTACACTGTACCCTACCCTTATGAGCAACTCCACGGAGTCACCTAGTGCAG,8600 fluorescence intensity (a.u.)
8,GAAATACGGCATGCATGTTGACCGGAAGGCATACACATACCGGAGTCACCTAGTGCAG,8570 fluorescence intensity (a.u.)
9,TCTTCTTCCCCGCCGCGACCCCGCATGCCGCGCGCCACCACGGAGTCACCTAGTGCAG,8310 fluorescence intensity (a.u.)
10,TCTCGCGCGCGACCGTTGCGCCATTTTTTTTCTTTTACCGCGGAGTCACCTAGTGCAG,9880 fluorescence intensity (a.u.)
11,ATTTTTTTGTGAATTTGGTCAAATTTTATTCAAATTCATTCGGAGTCACCTAGTGCAG,8280 fluorescence intensity (a.u.)
12,AATTTGTAGTTATACCTAATCTATTTTCACCATATGTGCACGGAGTCACCTAGTGCAG,8340 fluorescence intensity (a.u.)
13,CTTCCCATATACTCTTGTGACCAAACCTTTTCGACCAATACGGAGTCACCTAGTGCAG,11800 fluorescence intensity (a.u.)
14,AGTCGTCGTCTCTCAGTATTGTCAATTCTTCTGCTAGCTGCGGAGTCACCTAGTGCAG,9430 fluorescence intensity (a.u.)
15,TCCTTTTGTTTTTCATTTTATACAGTTGTCCTAGTTCACGCGGAGTCACCTAGTGCAG,8500 fluorescence intensity (a.u.)
16,TATTTTTCAGCTCACCTCTTCTTTTTTTTTCGTACACATGCGGAGTCACCTAGTGCAG,10700 fluorescence intensity (a.u.)
17,TTTTCTGAAACAGAGACTGCTAATACCTTCCCCGGTTTATCGGAGTCACCTAGTGCAG,8840 fluorescence intensity (a.u.)
18,CAAAAGACGACGCACTCCCACTCTACTATATATTCTGGCGCGGAGTCACCTAGTGCAG,9200 fluorescence intensity (a.u.)
19,ATCTGTTTTGGCACAACTTCATTTTTCCTTTTTTTTTTTTCGGAGTCACCTAGTGCAG,10100 fluorescence intensity (a.u.)
20,AAATCATGTGCATCCTACCCTTCTGTTTCTTGCTTCGGAACGGAGTCACCTAGTGCAG,8290 fluorescence intensity (a.u.)
21,ATTATAGCCATTCTCTCCAGCCACCCTCTCGCCTCCTCCTCGGAGTCACCTAGTGCAG,8640 fluorescence intensity (a.u.)
